Experimental data: patent publication US20140213648A1, “METHODS OF INCREASING EPA BLOOD LEVELS” (priority 2012, published 2014)
At least one structure is not confirmed: it was looked up by name or label, or the drawing left a doubt.

Experiment: 12-week placebo-controlled study: red blood cell fatty acid concentrations, ratios and proportions (GC/FID)
Assay type: in vivo, human
Conditions: 12 weeks
Description: A multi-center, placebo-controlled randomized, double-blind, 12-week study with an open-label extension is performed to evaluate the efficacy and safety of AMR101 in patients with fasting triglyceride levels ≧500 mg/dL. The primary objective of the study is to determine the efficacy of AMR101 2 g daily and 4 g daily, compared to placebo, in lowering fasting TG levels in patients with fasting TG levels ≧500 mg/dL and ≦1500 mg/dL (≧5.65 mmol/L and ≦16.94 mmol/L).
Eligible patients will be randomly assigned at Visit 4 (Week 0) to receive orally AMR101 2 g daily, AMR101 4 g daily, or placebo for the 12-week double-blind treatment period. AMR101 is provided in 1 g liquid-filled, oblong, gelatin capsules. The matching placebo capsule is filled with light liquid paraffin and contains 0 g of AMR101. During the double-blind treatment period, patients will take 2 capsules (AMR101 or matching placebo) in the morning and 2 in the evening for a total of 4 capsules per day. Patients in the AMR101 2 g/day treatment group will receive 1 AMR101 1 g capsule and 1 matching placebo capsule in the morning and in the evening. Patients in the AMR101 4 g/day treatment group will receive 2 AMR101 1 g capsules in the morning and evening.
Lipids were extracted from plasma and RBC suspensions and converted into fatty acid methyl esters for analysis using a standard validated gas chromatography/flame ionization detection method. Fatty acid parameters were compared between EPA treatment groups and placebo using an ANCOVA model with treatment, gender, type of statin therapy, and presence of diabetes as factors, and the baseline parameter value as a covariate. LSMs, SEs, and 2-tailed 95% confidence intervals for each treatment group and for each comparison were determined.

## CC/C=C\C/C=C\C/C=C\C/C=C\C/C=C\CCCC(=O)OCC [IPE, Icosapent ethyl]
2 g/day and 4 g/day
  Mean placebo-adjusted RBC concentrations of DHA (in words): Neither dose of ultra-pure EPA produced a significant change
  Mean placebo-adjusted RBC concentrations of arachidonic acid and RBC ratio of arachidonic acid to EPA (in words): significantly decreased
  Mean placebo-adjusted concentrations of EPA, DPAn-3 and ratio of total omega-3 to omega-6 fatty acids in RBCs (in words): significantly increased
2 g/day or 4 g/day
  Proportion of monounsaturated fatty acids in RBCs compared to placebo (in words): decreased proportion of monounsaturated fatty acids
  Proportion of omega-3 fatty acids in RBCs compared to placebo (in words): increased proportion of omega-3 fatty acids
  Proportion of saturated fatty acids in RBCs (in words): Neither dose induced significant changes
4 g/day EPA group
  RBC concentration of linoleic acid (in words): significantly decreased over placebo
